Measurements: PubChem BioAssay AID2685 (National Center for Advancing Translational Sciences (NCATS), 2010)
The list shows a part of the results. The main result of the screen is listed elsewhere. These columns were measured beside it and carry no call. Compounds called inactive in the main read-out are mostly missing here. The note in brackets gives the kind of curve behind each potency; many fits are weak.

Assay: qHTS Assay for Lipid Storage Modulators in Drosophila S3 Cells;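 on cell number change: cells counted by Cell Tracker Red CMTPX staining in the red channel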
Details: BODIPY lipid droplet fluorescence, 18-24 h; for cell number change: measured here: cell count max response, cells fed with added oleic acid
In short: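 Drosophila S3 cells got compounds at several concentrations plus oleic acid (400 uM solution). Laser-scanning cytometry with 488 nm excitation read lipid droplets at 500-530 nm and cells at 575-640 nm. Percent activity was relative to 20 uM Triacsin C.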

[1] = measured here: cell number channel AC50, cells fed with added oleic acid
[2] = measured here: lipid fluorescence (Fed channel) AC50, cells fed with added oleic acid

SMILES	cell number change	AC50 [1]	AC50 [2]
O=C(Nc1ccc(NC(=O)c2cccs2)cc1)c1cccnc1	-9.77%	2.06 µM [rising, partial curve]	–
O=C(OCC(=O)N1CCCc2ccccc21)c1cnc(Cl)c(Cl)c1	-14.3%	–	–
Cc1ccsc1C1CC(=O)OC2=C1C(=O)CC(C)(C)C2 (stereo not drawn)	-9.38%	–	0.00411 µM [falling, full curve, poor fit]
CCOc1ccc(C(=O)NCC(=O)OCC(=O)Nc2ccccc2OCC)cc1	-32.1%	–	0.13 µM [falling, full curve, poor fit]
Cc1c(C(=O)N2CCc3ccccc3C2)sc2nc(-c3ccccc3)cn12	-216%	–	–
CN1CCc2c(sc3c2c(=O)n(-c2ccccc2)c2nnc(SCc4ccccc4)n32)C1	9.14%	–	–
CCCc1cc(=O)oc2c(CN3CCN(C)CC3)c(O)ccc12	23.4%	–	–
COC(=O)NCC(C)OC(=O)Nc1cccc(Cl)c1 (stereo not drawn)	-21.3%	–	–
Cc1ccccc1NS(=O)(=O)c1ccc(C(=O)N2CCCC2)cc1	-51.9%	25.9 µM [falling, partial curve]	–
O=C(COC(=O)c1ccc(Cl)nc1)Nc1ccc(N2CCOCC2)cc1	–	–	18.4 µM [rising, single point]
CCOc1ncccc1C(=O)Nc1ccc(S(=O)(=O)NC2=NCCCCC2)cc1	114%	1.84 µM [rising, full curve]	–
Cc1cc2nc(C)c3c(n2n1)CCC3	–	6.51 µM [rising, single point]	–
CCC(=O)Nc1ccc(NC(=O)c2cccc3ccccc23)cc1	22.9%	–	–
CN(C)CCOC(=O)C12CC3(C)CC(C)(CC(C)(C3)C1)C2	-4.34%	–	0.731 µM [falling, single point]
CCOc1cc(C(=O)N2CCN(c3ccccn3)CC2)cc(OCC)c1OCC	-50%	16.4 µM [falling, single point]	–
O=C(O)CCCC(=O)Nc1ccn(-c2ccccc2)n1	1.23%	–	6.51 µM [falling, single point]
Cc1ccc(CNc2nc(N)c([N+](=O)[O-])c(Nc3cccc(F)c3)n2)cc1	–	3.26 µM [rising, single point]	–
Nc1nnc(SCC(=O)NNC(=O)c2ccc([N+](=O)[O-])cc2)s1	-31.4%	0.82 µM [falling, full curve]	0.92 µM [falling, full curve, poor fit]
CN(C)c1cc(N/N=C/c2ccc(Cl)cc2)nc(N(C)C)n1	-36.7%	29.1 µM [falling, single point]	–
O=C(OCCN1C(=O)c2cccc3c(N4CCOCC4)ccc(c23)C1=O)c1ccccc1Cl	-10.1%	–	–
CCOP1(=O)OCC2OC(n3cnc4c(N)ncnc43)C(O)C2O1 (stereo not drawn)	-2.99%	2.59 µM [rising, single point]	–

SMILES	cell number change	AC50 [1]	AC50 [2]
O=C(Nc1ccc(-c2csc(-c3ccccc3)n2)cc1)c1ccccc1	-58.2%	23.1 µM [falling, single point]	23.1 µM [falling, single point]
COc1cc(C(=O)N2CCN(S(=O)(=O)c3cccc(F)c3)CC2)ccc1OCC(=O)N1CCOCC1	–	0.103 µM [falling, full curve, poor fit]	29.1 µM [rising, single point]
CCOc1ccccc1NC(=O)c1cc(C(=O)Nc2ccccc2OCC)cc(N2C(=O)CCC2=O)c1	-1.49%	6.51 µM [falling, single point]	–
Cc1ccc(C(c2nnnn2CC2CCCO2)N2CCN(c3cccc(C)c3C)CC2)cc1 (stereo not drawn)	-18.8%	–	4.61 µM [rising, full curve]
Cn1cc(CN2CCCC(C(=O)Nc3cccc(-n4cccn4)c3)C2)cn1 (stereo not drawn)	18.2%	–	–
CC(=O)NC(CC(=O)Nc1nc(-c2ccccc2)c(C(C)=O)s1)c1ccccc1 (stereo not drawn)	-1.28%	–	25.9 µM [falling, single point]
C=CCn1c(Cc2csc(N)n2)nnc1SCC(=O)OCC	-14.8%	–	25.9 µM [falling, partial curve]
CCCC1(c2ccccc2)NC(=O)N(CC(=O)NCc2ccc(C)cc2)C1=O (stereo not drawn)	93.7%	23.1 µM [rising, partial curve]	29.1 µM [rising, single point]
Cc1nc2ccc(C(=O)N3CCSCC3)cc2s1	10.8%	–	0.651 µM [falling, partial curve, poor fit]
CC(C)Sc1nc2ccccc2n1CC(N)=O	6.59%	–	1.16 µM [falling, full curve, poor fit]
O=c1cc(CN2CCN(Cc3ccc(F)cc3)C(CCO)C2)[nH]c2ccccc12 (stereo not drawn)	7.62%	–	0.116 µM [rising, full curve, poor fit]
Cc1ccc(S(=O)(=O)NCC(=O)OCC(=O)N(C)C2CCCCC2)cc1	-6.22%	–	2.31 µM [rising, partial curve]
CCOP(=O)(C1=C(O)C(=O)C(C(C)(C)C)=CC1=O)c1ccccc1 (stereo not drawn)	-71.5%	–	29.1 µM [falling, single point]
CC(c1ccco1)N(C(=O)c1ccc(Cl)s1)c1ccccn1 (stereo not drawn)	-24%	–	–
Cc1cc(C)cc(OCC(=O)Nc2ccc(F)cc2)c1	-43.2%	20.6 µM [falling, partial curve]	–
CC1CCN(C(=O)c2ccc(CSc3ccc(Cl)cc3)cc2)CC1	5.83%	–	14.6 µM [rising, partial curve, poor fit]
COc1ccccc1NC(=O)c1ccc(S(=O)(=O)N(C)C)cc1	–	6.51 µM [rising, single point]	–
COc1cccc(N2CCN(CC(=O)Nc3nc(C)c(C(=O)N(C)C)s3)CC2)c1	43.9%	16.4 µM [rising, partial curve, poor fit]	18.4 µM [rising, partial curve]
Cc1[nH]c2ccccc2c1SCc1nnc(SCc2ccccc2)n1C	-23%	–	–
Cn1c(=O)[nH]c(=O)c2c1nc(NN)n2CCOc1ccccc1	–	–	2.91 µM [rising, single point]
COCCn1c(=NC(=O)CCS(=O)(=O)c2ccccc2)sc2cc(F)ccc21	-1.73%	–	6.51 µM [rising, single point]

Two records picked at random from those above, as already listed:
SMILES	cell number change	AC50 [1]	AC50 [2]
Cc1ccc(C(c2nnnn2CC2CCCO2)N2CCN(c3cccc(C)c3C)CC2)cc1 (stereo not drawn)	-18.8%	–	4.61 µM [rising, full curve]
CCOc1ccccc1NC(=O)c1cc(C(=O)Nc2ccccc2OCC)cc(N2C(=O)CCC2=O)c1	-1.49%	6.51 µM [falling, single point]	–
